Source: article PMC3975354
Results are given in words; binding and its absence hold for the method and conditions named. In cells and extracts the contact can be indirect. Some binding calls cover weakened binding; strength is not graded here.

Experiments:
[1] = molecular target: T1, human VCAM-1 over-expressed in NMuMG cells (pBabe-puro-VCAM-1) (human) (UniProt P19320); assay: co-IP; NMuMG cells (eGFP control and VCAM-1 over-expressing) lysed in 1x RIPA buffer; IP with anti-VCAM-1 antibody or normal IgG and protein A/G-agarose, overnight at 4 °C, five washes; Western blot
T1 sequence: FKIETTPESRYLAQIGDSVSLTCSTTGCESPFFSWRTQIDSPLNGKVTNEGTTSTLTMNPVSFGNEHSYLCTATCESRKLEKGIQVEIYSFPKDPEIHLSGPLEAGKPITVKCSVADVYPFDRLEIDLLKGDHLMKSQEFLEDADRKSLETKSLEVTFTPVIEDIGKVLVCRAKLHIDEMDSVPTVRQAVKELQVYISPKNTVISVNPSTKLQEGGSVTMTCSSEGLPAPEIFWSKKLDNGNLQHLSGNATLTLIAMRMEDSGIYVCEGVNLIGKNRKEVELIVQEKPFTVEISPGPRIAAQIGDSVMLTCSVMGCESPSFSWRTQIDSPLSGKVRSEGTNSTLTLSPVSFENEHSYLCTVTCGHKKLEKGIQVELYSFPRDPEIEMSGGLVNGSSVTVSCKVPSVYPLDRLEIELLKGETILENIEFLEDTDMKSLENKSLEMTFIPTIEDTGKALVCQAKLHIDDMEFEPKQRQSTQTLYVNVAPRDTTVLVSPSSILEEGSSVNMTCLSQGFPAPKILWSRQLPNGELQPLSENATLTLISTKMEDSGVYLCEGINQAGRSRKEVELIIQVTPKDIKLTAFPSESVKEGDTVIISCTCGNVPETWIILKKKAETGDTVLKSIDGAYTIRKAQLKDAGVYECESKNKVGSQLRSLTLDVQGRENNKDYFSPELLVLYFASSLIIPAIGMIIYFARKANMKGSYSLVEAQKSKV

[2] = molecular target: T2, VCAM-1 (vascular cell adhesion molecule-1), endogenous in NMuMG cells (mouse (endogenous in NMuMG)) (UniProt P29533); assay: as above
T2 sequence: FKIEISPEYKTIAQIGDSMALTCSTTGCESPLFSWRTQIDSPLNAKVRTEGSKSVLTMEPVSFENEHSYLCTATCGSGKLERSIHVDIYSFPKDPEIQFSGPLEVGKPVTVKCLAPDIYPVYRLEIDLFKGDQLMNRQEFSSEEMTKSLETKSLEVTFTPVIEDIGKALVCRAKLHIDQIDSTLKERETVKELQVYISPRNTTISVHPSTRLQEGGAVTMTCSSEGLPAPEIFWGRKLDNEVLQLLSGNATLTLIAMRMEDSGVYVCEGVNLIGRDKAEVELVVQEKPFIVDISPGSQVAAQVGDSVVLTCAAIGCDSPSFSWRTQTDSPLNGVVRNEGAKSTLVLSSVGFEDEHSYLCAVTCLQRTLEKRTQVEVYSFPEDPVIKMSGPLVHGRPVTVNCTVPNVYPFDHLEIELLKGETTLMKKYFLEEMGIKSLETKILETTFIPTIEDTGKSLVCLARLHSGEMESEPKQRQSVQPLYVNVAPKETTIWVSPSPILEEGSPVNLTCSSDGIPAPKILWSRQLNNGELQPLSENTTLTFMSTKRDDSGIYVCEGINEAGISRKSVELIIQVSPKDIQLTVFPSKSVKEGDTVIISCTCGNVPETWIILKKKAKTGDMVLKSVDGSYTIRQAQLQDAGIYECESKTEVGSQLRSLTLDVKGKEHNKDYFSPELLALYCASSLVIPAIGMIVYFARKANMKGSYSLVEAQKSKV

B1: CD44, endogenous in NMuMG cells (protein, UniProt P15379 23-778)
chain: QIDLNVTCRYAGVFHVEKNGRYSISRTEAADLCQAFNSTLPTMDQMKLALSKGFETCRYGFIEGNVVIPRIHPNAICAANHTGVYILVTSNTSHYDTYCFNASAPPEEDCTSVTDLPNSFDGPVTITIVNRDGTRYSKKGEYRTHQEDIDASNIIDDDVSSGSTIEKSTPEGYILHTYLPTEQPTGDQDDSFFIRSTLATIASTVHSKSHAAAQKQNNWIWSWFGNSQSTTQTQEPTTSATTALMTTPETPPKRQEAQNWFSWLFQPSESKSHLHTTTKMPGTESNTNPTGWEPNEENEDETDTYPSFSGSGIDDDEDFISSTIATTPRVSARTEDNQDWTQWKPNHSNPEVLLQTTTRMADIDRISTSAHGENWTPEPQPPFNNHEYQDEEETPHATSTTPNSTAEAAATQQETWFQNGWQGKNPPTPSEDSHVTEGTTASAHNNHPSQRITTQSQEDVSWTDFFDPISHPMGQGHQTESKDTDSSHSTTLQPTAAPNTHLVEDLNRTGPLSVTTPQSHSQNFSTLHGEPEEDENYPTTSILPSSTKSSAKDARRGGSLPTDTTTSVEGYTFQYPDTMENGTLFPVTPAKTEVFGETEVTLATDSNVNVDGSLPGDRDSSKDSRGSSRTVTHGSELAGHSSANQDSGVTTTSGPMRRPQIPEWLIILASLLALALILAVCIAVNSRRRCGQKKKLVINGGNGTVEDRKPSELNGEASKSQEMVHLVNKEPSETPDQCMTADETRNLQSVDMKIGV
binding [1]: binds | binding [2]: binds
